The series in a line: general procedure: Boc solid-phase peptide synthesis; Chloromethylated polystyrene resin crosslinked with 1% divinylbenzene (1.1 mmoles Cl/g). The conditions noted are these: whole synthesis.

As for “L-Cysteinyl-L-glutaminyl-L-histidyl-L phenylalanyl-D-arginyl-L-phenylalanyl-D-cysteinyl-cyclic (4-10) disulfide”, the isolated mass is 318 mg. In addition, the isolated yield (scale 3.67 mmol) amounted to 9.2%.

The record behind these values is patent US4649191A (Gibson-Stephens Neuropharmaceuticals, Inc., priority 1984, dated 1987).
